Results as given in the supplement of paper PMC10849652.
The other results are listed elsewhere or left out.

Chains of the proteins cited; added tags and fusions are not shown. Lines headed by an entry give the natural chain unless they say otherwise; changes in a name come on top.
UniProt Q92841: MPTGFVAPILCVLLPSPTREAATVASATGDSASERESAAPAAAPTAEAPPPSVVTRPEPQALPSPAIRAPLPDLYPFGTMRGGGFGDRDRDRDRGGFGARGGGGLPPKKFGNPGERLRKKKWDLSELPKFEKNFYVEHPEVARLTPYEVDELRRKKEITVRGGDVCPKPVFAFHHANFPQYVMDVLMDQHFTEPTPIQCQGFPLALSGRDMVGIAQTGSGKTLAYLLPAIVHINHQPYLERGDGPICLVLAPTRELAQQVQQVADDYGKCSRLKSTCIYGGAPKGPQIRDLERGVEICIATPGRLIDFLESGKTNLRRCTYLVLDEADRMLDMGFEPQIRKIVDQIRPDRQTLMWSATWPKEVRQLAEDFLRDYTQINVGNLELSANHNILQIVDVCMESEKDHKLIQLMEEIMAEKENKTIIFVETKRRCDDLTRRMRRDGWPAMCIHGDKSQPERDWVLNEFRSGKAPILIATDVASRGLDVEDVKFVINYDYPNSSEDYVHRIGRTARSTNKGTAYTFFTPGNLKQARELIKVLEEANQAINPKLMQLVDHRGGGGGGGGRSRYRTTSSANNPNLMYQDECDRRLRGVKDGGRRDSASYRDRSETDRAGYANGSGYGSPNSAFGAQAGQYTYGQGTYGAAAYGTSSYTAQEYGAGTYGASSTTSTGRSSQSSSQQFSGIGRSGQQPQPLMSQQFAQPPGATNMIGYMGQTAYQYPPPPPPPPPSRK
UniProt Q15700, whole entry, looked up: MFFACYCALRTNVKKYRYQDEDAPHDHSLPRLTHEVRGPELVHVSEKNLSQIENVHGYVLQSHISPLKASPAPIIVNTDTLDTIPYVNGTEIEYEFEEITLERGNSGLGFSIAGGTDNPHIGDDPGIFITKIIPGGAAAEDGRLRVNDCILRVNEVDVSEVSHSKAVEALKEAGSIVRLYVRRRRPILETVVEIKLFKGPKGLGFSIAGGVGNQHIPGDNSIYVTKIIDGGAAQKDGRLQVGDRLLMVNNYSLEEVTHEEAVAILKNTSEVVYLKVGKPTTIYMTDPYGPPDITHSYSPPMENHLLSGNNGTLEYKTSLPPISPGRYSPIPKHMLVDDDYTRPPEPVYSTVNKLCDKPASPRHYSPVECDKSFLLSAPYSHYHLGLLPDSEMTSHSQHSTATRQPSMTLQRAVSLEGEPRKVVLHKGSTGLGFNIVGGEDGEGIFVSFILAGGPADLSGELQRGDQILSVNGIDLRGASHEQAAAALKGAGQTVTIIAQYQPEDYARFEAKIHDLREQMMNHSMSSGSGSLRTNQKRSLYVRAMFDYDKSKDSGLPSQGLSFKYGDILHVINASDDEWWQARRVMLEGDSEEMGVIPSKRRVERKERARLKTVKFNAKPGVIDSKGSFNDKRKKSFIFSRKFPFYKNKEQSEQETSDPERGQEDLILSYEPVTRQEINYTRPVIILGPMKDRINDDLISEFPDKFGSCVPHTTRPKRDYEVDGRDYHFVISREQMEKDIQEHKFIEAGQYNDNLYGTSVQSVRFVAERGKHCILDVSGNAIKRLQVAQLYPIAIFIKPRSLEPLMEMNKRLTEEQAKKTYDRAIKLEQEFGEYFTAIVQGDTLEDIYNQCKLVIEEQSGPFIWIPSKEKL
UniProt P26196: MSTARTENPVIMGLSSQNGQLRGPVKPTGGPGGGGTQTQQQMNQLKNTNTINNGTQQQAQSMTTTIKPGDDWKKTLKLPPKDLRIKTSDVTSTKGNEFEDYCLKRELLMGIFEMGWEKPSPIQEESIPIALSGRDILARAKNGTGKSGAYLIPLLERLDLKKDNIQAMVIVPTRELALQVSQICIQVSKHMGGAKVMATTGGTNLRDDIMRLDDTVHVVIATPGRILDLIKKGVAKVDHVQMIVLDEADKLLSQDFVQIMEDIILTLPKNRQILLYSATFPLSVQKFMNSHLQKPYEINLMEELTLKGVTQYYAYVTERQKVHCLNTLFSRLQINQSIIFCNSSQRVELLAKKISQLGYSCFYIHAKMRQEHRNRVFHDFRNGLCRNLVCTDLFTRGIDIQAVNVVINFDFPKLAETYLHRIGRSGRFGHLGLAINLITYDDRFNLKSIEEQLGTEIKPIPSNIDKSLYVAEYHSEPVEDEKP
UniProt Q02127: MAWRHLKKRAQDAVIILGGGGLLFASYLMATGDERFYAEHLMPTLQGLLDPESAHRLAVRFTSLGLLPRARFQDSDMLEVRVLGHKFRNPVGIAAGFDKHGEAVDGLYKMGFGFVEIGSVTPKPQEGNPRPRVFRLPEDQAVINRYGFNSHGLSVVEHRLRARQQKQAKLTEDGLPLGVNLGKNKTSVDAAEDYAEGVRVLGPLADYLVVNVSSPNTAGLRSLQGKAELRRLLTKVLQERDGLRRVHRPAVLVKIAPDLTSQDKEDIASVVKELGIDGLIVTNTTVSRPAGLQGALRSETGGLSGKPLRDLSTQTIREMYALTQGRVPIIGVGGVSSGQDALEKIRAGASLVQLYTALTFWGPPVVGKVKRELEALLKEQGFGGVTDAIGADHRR
UniProt Q9Y2L1: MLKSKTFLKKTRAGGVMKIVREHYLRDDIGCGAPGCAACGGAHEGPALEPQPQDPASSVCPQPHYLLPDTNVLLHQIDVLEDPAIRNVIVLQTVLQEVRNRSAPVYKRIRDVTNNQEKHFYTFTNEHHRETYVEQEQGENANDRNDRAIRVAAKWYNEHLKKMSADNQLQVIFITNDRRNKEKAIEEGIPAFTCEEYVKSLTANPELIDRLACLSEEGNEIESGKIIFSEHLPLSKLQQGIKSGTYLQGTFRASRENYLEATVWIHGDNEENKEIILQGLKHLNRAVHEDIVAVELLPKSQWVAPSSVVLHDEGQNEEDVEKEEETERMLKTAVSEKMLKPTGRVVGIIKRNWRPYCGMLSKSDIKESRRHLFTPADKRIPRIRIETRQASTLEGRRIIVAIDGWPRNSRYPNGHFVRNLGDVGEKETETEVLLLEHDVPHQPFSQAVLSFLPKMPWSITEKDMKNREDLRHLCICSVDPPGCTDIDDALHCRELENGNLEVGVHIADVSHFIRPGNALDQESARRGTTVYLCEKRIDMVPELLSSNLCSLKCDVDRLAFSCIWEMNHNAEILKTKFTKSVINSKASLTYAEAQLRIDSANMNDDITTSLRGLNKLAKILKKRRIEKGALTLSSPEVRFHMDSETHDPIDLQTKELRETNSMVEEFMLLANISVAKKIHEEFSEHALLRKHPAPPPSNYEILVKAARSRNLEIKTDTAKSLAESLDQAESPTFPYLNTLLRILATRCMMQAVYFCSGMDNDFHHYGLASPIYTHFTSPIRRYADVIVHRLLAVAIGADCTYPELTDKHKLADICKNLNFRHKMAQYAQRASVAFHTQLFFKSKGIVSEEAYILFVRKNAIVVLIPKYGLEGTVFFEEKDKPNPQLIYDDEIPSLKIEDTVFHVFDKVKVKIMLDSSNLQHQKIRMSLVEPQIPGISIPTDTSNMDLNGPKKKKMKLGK
UniProt P00374: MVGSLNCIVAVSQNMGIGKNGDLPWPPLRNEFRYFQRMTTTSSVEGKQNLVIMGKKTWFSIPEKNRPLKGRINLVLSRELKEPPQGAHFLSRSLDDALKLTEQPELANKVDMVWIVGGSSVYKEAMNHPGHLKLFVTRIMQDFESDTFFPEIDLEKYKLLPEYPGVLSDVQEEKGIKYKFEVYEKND
UniProt P09622, whole entry, looked up: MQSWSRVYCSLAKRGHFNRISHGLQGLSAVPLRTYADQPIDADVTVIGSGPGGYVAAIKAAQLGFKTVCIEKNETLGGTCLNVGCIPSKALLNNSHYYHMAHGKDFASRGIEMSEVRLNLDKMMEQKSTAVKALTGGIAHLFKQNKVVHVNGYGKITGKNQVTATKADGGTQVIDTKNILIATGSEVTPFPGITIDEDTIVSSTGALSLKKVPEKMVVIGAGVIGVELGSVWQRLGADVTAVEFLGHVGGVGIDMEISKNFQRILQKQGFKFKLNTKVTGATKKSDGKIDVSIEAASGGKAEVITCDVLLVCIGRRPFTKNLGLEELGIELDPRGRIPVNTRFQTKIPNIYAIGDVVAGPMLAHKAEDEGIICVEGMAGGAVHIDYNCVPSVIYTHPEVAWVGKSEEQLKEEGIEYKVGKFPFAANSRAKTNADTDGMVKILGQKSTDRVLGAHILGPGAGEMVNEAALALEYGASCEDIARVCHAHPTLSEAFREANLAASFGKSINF
UniProt Q96GQ7: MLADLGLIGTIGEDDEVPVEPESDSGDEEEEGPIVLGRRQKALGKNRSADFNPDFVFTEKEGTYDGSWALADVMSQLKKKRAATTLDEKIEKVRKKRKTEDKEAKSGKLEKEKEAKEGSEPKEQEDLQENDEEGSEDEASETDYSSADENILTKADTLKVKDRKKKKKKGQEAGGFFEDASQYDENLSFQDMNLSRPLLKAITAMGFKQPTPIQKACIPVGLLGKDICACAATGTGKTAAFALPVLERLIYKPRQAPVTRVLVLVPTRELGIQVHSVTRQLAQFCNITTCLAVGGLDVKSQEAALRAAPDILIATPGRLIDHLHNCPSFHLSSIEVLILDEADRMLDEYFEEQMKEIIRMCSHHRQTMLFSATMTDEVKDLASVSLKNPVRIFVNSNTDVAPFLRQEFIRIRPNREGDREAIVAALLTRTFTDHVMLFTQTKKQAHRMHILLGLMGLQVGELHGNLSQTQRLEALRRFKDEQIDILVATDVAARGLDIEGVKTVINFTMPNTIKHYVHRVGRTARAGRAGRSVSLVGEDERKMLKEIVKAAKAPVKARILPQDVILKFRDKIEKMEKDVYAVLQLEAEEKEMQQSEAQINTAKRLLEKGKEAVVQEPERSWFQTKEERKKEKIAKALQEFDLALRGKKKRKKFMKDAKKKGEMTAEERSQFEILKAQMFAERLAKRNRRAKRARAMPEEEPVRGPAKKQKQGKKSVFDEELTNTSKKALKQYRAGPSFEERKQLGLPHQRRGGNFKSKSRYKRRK
UniProt O75911: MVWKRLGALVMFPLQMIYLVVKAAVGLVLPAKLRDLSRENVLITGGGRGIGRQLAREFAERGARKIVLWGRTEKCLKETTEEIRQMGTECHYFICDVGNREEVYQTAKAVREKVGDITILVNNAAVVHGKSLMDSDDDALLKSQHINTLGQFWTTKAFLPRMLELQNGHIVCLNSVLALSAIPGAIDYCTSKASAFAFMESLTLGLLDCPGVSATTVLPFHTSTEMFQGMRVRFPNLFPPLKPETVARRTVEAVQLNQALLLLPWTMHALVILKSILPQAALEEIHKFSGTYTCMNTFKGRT
UniProt Q96GE9: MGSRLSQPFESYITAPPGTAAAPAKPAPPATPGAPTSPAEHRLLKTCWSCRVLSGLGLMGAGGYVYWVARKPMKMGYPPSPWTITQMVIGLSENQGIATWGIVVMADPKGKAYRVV
UniProt Q9NVR5: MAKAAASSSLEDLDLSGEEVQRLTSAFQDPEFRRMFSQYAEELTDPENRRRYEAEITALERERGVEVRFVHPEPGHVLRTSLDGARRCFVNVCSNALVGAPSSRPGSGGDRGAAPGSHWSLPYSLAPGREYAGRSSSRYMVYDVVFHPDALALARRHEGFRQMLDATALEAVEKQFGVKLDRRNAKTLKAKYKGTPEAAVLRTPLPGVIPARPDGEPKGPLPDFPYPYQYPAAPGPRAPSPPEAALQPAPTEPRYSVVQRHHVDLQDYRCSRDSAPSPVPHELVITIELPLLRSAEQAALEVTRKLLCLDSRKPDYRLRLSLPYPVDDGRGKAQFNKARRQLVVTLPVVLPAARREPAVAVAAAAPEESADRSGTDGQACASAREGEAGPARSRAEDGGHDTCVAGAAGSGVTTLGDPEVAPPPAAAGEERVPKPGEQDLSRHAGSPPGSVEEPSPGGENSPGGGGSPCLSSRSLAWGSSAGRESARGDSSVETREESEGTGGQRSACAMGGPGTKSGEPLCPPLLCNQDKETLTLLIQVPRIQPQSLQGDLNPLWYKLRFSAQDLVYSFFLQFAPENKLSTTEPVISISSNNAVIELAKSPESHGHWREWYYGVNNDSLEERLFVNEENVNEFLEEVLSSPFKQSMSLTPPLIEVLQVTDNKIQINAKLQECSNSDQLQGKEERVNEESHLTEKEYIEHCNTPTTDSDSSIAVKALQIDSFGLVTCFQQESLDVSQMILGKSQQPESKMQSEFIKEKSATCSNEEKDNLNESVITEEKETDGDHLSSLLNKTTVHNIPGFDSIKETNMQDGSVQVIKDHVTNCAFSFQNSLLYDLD
UniProt O15121: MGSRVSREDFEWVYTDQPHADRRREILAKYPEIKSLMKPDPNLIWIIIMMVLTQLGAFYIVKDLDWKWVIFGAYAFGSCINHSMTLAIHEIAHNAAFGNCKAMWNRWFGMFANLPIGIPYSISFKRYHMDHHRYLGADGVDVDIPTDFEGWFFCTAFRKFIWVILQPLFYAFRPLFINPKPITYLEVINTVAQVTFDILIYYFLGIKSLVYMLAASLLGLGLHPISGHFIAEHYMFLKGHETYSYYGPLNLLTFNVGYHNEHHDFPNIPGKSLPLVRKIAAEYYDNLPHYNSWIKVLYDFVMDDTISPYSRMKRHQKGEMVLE

Tests used:
Experiment in all cases: log2 fold change, soluble protein after heating vs DMSO (PISA); higher = thermal stabilisation; K562 cells, 10 uM, 30 min; active = over 0.2 and 3.5 SD of the protein, either way, in both replicates (recomputed)
[1] = compound: CN1CCN(CCOc2cc(OC3CCOCC3)c3c(Nc4c(Cl)ccc5c4OCO5)ncnc3c2)CC1 [saracatinib]
Outline: (§1)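 Quantification of soluble protein used TMTpro 16plex LC-MS/MS, with channel sums equalised. Samples were the supernatant after 21,000xg for 90 min of pooled aliquots from K562 cells (2×10^6 cells/mL) treated with 10 μM compound for 30 min, heated for 3 min over 48°C-58°C, and extracted in PBS with 0.5% NP-40 at 4°C. Values, from duplicates, describe thermal stability against control samples on a log2 fold-change scale.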

[2] = compound: CN1CCN(c2nc(C3=C(c4c[nH]c5ccccc45)C(=O)NC3=O)c3ccccc3n2)CC1 [sotrastaurin]
Outline: as §1

[3] = compound: CN1CC[C@H](c2c(O)cc(O)c3c(=O)cc(-c4ccccc4Cl)oc23)[C@H](O)C1 [alvocidib]
Outline: as §1

[4] = compound: CN1CCc2c(c3ccccc3n2Cc2ccc(C(=O)NO)cc2)C1 [Tubastatin A]
Outline: as §1

[5] = compound: CNC(=O)C1=CC=CC=C1NC2=NC(=NC=C2Cl)NC3=C(C=C(C=C3)N4CCOCC4)OC
Outline: as §1

[6] = compound: CNC(=O)c1ccc(Nc2ncc(C(F)(F)F)c(NCc3nccnc3N(C)S(C)(=O)=O)n2)cc1 [defactinib]
Outline: as §1

[7] = compound: CNCc1ccc(-c2[nH]c3cc(F)cc4c3c2CCNC4=O)cc1 [rucaparib]
Outline: as §1

[8] = compound: CNc1nc(-c2ccc3c(N)n[nH]c3c2)cc(N2C[C@@H](C(=O)NC3CCCCC3)CC[C@H]2C)n1
Outline: as §1

[9] = compound: COC(=O)N[C@@H](C)CNc1nccc(-c2cn(C(C)C)nc2-c2cc(Cl)cc(NS(C)(=O)=O)c2F)n1 [encorafenib]
Outline: as §1

[10] = compound: COC(=O)[C@H](CCSC)NC(=O)C1=C(C=C(C=C1)NC[C@H](CS)N)C2=CC=CC=C2
Outline: as §1

Target | log2 fold change [1] | log2 fold change [2] | log2 fold change [3] | log2 fold change [4] | log2 fold change [5] | log2 fold change [6] | log2 fold change [7] | log2 fold change [8] | log2 fold change [9] | log2 fold change [10]
DIABLO (UniProt Q9NR28) | inactive: 0.049 | inactive: 0.052 | inactive: -0.05 | inactive: -0.023 | inactive: -0.058 | inactive: 0.021 | inactive: -0.048 | inactive: 0.009 | inactive: -0.041 | inactive: -0.017
DDX17 (UniProt Q92841) | inactive: -0.016 | inactive: -0.059 | inactive: -0.028 | inactive: 0.008 | inactive: 0.005 | inactive: -0.081 | inactive: 0.013 | inactive: 0.011 | inactive: 0.083 | inactive: -0.022
DDX1 (UniProt Q92499) | inactive: -0.034 | inactive: -0.061 | inactive: 0.086 | inactive: 0.125 | inactive: 0.069 | inactive: 0.211 | inactive: 0.165 | inactive: 0.137 | inactive: 0.162 | inactive: -0.03
DHX29 (UniProt Q7Z478) | inactive: -0.016 | inactive: -0.032 | inactive: 0.09 | inactive: 0.012 | inactive: 0.031 | inactive: 0.115 | inactive: 0.141 | inactive: 0.033 | inactive: 0.079 | inactive: -0.027
DLG2 isoform 2 (UniProt Q15700) | inactive: 0.012 | inactive: -0.086 | inactive: -0.057 | inactive: -0.003 | inactive: 0.009 | inactive: -0.018 | inactive: -0.012 | inactive: 0.001 | inactive: 0.08 | inactive: -0.09
DDX6 (UniProt P26196) | inactive: -0.019 | inactive: 0.003 | inactive: -0.009 | inactive: 0.005 | inactive: 0.02 | inactive: 0 | inactive: 0.062 | inactive: 0.011 | inactive: 0.007 | inactive: -0.026
DHRS4 (UniProt Q9BTZ2) | inactive: 0.081 | inactive: -0.001 | inactive: 0 | inactive: -0.039 | inactive: 0.002 | inactive: -0.051 | inactive: -0.071 | inactive: 0.001 | inactive: 0 | inactive: 0.002
DHODH (UniProt Q02127) | inactive: 0.025 | inactive: 0.021 | inactive: -0.009 | inactive: -0.013 | inactive: -0.015 | inactive: -0.041 | inactive: -0.001 | inactive: -0.067 | inactive: -0.011 | inactive: 0.001
DIS3 (UniProt Q9Y2L1) | inactive: -0.054 | inactive: -0.091 | inactive: -0.159 | inactive: 0.113 | inactive: -0.084 | inactive: -0.088 | inactive: -0.035 | inactive: 0.034 | inactive: 0.046 | inactive: -0.046
DHFR (UniProt P00374) | inactive: -0.193 | active: 1.66 | – | active: 1.77 | inactive: -0.115 | inactive: -0.109 | inactive: 0.39 | inactive: 0.036 | inactive: 0.109 | inactive: -0.059
DHRS13 (UniProt Q6UX07) | inactive: -0.03 | inactive: -0.17 | – | inactive: 0.105 | inactive: 0.024 | inactive: -0.032 | inactive: 0.188 | inactive: 0.174 | inactive: 0.021 | inactive: -0.114
DDX5 (UniProt P17844) | inactive: -0.055 | inactive: -0.206 | – | inactive: 0.041 | inactive: 0.025 | inactive: -0.206 | inactive: -0.075 | inactive: -0.021 | inactive: 0.14 | inactive: -0.085
DLD (UniProt P09622) | inactive: 0.055 | inactive: 0.015 | – | inactive: -0.029 | inactive: 0.008 | inactive: 0.01 | inactive: -0.041 | inactive: -0.023 | inactive: -0.011 | inactive: 0.047
DDX24 (UniProt Q9GZR7) | inactive: -0.003 | inactive: 0.055 | inactive: 0.264 | inactive: 0.392 | – | inactive: 0.082 | – | inactive: -0.03 | – | inactive: -0.051
DDX27 (UniProt Q96GQ7) | inactive: -0.104 | inactive: -0.088 | – | inactive: 0.09 | inactive: -0.035 | inactive: 0.651 | inactive: 0.255 | inactive: -0.017 | inactive: 0.124 | inactive: 0.057
DHRS3 (UniProt O75911) | inactive: -0.022 | inactive: -0.008 | – | inactive: -0.042 | inactive: 0.044 | inactive: 0.077 | inactive: -0.04 | inactive: -0.016 | inactive: 0.004 | inactive: 0.027

Reprinted at random: 2 records from the list
Target | log2 fold change [1] | log2 fold change [2] | log2 fold change [3] | log2 fold change [4] | log2 fold change [5] | log2 fold change [6] | log2 fold change [7] | log2 fold change [8] | log2 fold change [9] | log2 fold change [10]
DIABLO (UniProt Q9NR28) | inactive: 0.049 | inactive: 0.052 | inactive: -0.05 | inactive: -0.023 | inactive: -0.058 | inactive: 0.021 | inactive: -0.048 | inactive: 0.009 | inactive: -0.041 | inactive: -0.017
DLD (UniProt P09622) | inactive: 0.055 | inactive: 0.015 | – | inactive: -0.029 | inactive: 0.008 | inactive: 0.01 | inactive: -0.041 | inactive: -0.023 | inactive: -0.011 | inactive: 0.047

The list continues.

Target | log2 fold change [1] | log2 fold change [2] | log2 fold change [3] | log2 fold change [4] | log2 fold change [5] | log2 fold change [6] | log2 fold change [7] | log2 fold change [8] | log2 fold change [9] | log2 fold change [10]
DDX46 (UniProt Q7L014) | inactive: 0 | inactive: -0.197 | – | inactive: 0.101 | inactive: 0.054 | inactive: -0.296 | inactive: -0.125 | inactive: 0.028 | inactive: 0.05 | inactive: -0.085
DENND1B (UniProt Q6P3S1) | inactive: 0.142 | inactive: 0.102 | inactive: -0.097 | – | – | inactive: -0.177 | inactive: 0.11 | inactive: 0.076 | inactive: -0.06 | inactive: -0.434
DHX36 (UniProt Q9H2U1) | inactive: -0.014 | inactive: 0.021 | – | inactive: 0.048 | inactive: -0.041 | inactive: 0.171 | inactive: 0.187 | inactive: 0.03 | inactive: 0.095 | inactive: 0.011
DDB1 (UniProt Q16531) | inactive: 0.04 | inactive: 0.04 | – | inactive: -0.025 | inactive: 0.001 | inactive: 0.002 | inactive: -0.033 | inactive: -0.035 | inactive: 0.003 | inactive: 0
DHRS7B (UniProt Q6IAN0) | inactive: -0.003 | inactive: 0.148 | – | inactive: -0.019 | inactive: 0.051 | inactive: -0.067 | inactive: 0.029 | inactive: 0.071 | inactive: -0.008 | inactive: -0.016
DHPS (UniProt P49366) | inactive: 0.087 | inactive: 0.043 | – | inactive: 0.005 | inactive: -0.026 | inactive: -0.027 | inactive: -0.018 | inactive: -0.053 | inactive: -0.012 | inactive: -0.011
DHRS1 (UniProt Q96LJ7) | inactive: -0.074 | inactive: 0.153 | – | inactive: 0.022 | inactive: 0.375 | inactive: -0.007 | inactive: 0.031 | inactive: 0.392 | inactive: -0.116 | inactive: -0.116
DMAC1 (UniProt Q96GE9) | active: -0.509 | inactive: 0 | – | inactive: 0.031 | inactive: -0.077 | inactive: -0.048 | inactive: -0.124 | inactive: 0.005 | inactive: -0.105 | inactive: -0.019
DNAH5 (UniProt Q8TE73) | inactive: 0.058 | inactive: 0.017 | – | inactive: 0.058 | inactive: -0.057 | inactive: 0.015 | inactive: -0.071 | inactive: -0.099 | inactive: -0.006 | inactive: -0.072
DIP2A (UniProt Q14689) | inactive: 0.082 | inactive: 0.054 | – | inactive: -0.094 | inactive: 0.034 | inactive: -0.059 | inactive: 0.1 | inactive: -0.009 | inactive: 0 | inactive: 0.077
DNAH10 (UniProt Q8IVF4) | inactive: -0.067 | inactive: -0.06 | – | inactive: 0.191 | inactive: -0.157 | inactive: 0.004 | inactive: -0.044 | inactive: 0.062 | inactive: -0.06 | inactive: -0.013
DDX39A (UniProt O00148) | inactive: 0.018 | inactive: -0.149 | – | inactive: 0.007 | inactive: -0.143 | inactive: -0.213 | inactive: 0.111 | inactive: -0.041 | inactive: -0.016 | inactive: -0.032
DNAAF2 (UniProt Q9NVR5) | inactive: 0.048 | inactive: 0 | – | inactive: -0.042 | inactive: 0.01 | inactive: -0.142 | inactive: 0.031 | inactive: -0.033 | inactive: 0.026 | inactive: 0.043
DHCR24 (UniProt Q15392) | inactive: 0.761 | inactive: 0.567 | – | inactive: 0.338 | inactive: -0.094 | inactive: -0.017 | inactive: 0.561 | inactive: 0.117 | inactive: 0.001 | inactive: 0.01
DMTF1 (UniProt Q9Y222) | inactive: 0.018 | inactive: 0.009 | inactive: -0.016 | inactive: 0 | – | inactive: -0.13 | – | inactive: 0.017 | – | inactive: 0.11
DEGS1 (UniProt O15121) | inactive: 0.088 | inactive: -0.022 | – | active: -0.521 | inactive: 0.046 | inactive: -0.18 | inactive: 0.002 | inactive: 0.029 | inactive: 0.002 | inactive: 0.106
